Data on three molecules can be found in PMC6060233.

Chains of the proteins cited; added tags and fusions are not shown.
UniProt Q96SB3: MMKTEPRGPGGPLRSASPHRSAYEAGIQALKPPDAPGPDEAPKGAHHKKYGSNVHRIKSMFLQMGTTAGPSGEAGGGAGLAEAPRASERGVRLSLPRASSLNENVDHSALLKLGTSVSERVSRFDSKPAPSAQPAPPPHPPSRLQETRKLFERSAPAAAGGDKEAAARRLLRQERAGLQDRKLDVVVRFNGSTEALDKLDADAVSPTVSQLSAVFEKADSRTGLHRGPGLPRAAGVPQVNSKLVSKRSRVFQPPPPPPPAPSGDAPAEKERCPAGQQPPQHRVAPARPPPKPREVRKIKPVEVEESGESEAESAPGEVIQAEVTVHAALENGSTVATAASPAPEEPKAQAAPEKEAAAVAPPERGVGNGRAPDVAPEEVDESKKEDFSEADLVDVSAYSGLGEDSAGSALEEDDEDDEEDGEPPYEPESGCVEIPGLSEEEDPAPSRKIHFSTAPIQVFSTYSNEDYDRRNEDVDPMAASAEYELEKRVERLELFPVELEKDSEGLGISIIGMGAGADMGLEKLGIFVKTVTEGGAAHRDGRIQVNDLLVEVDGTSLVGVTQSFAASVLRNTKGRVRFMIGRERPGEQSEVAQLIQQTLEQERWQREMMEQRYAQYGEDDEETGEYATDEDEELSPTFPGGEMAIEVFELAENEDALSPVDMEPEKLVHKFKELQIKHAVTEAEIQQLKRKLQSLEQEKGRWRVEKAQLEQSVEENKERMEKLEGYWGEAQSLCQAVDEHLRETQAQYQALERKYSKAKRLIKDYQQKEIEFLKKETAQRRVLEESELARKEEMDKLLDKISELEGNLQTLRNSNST

Results are given in words; binding and its absence hold for the method and conditions named. In cells and extracts the contact can be indirect. Some binding calls cover weakened binding; strength is not graded here.

In one assay the target is T1, Anion exchanger 2 (UniProt P04920).
T1 sequence: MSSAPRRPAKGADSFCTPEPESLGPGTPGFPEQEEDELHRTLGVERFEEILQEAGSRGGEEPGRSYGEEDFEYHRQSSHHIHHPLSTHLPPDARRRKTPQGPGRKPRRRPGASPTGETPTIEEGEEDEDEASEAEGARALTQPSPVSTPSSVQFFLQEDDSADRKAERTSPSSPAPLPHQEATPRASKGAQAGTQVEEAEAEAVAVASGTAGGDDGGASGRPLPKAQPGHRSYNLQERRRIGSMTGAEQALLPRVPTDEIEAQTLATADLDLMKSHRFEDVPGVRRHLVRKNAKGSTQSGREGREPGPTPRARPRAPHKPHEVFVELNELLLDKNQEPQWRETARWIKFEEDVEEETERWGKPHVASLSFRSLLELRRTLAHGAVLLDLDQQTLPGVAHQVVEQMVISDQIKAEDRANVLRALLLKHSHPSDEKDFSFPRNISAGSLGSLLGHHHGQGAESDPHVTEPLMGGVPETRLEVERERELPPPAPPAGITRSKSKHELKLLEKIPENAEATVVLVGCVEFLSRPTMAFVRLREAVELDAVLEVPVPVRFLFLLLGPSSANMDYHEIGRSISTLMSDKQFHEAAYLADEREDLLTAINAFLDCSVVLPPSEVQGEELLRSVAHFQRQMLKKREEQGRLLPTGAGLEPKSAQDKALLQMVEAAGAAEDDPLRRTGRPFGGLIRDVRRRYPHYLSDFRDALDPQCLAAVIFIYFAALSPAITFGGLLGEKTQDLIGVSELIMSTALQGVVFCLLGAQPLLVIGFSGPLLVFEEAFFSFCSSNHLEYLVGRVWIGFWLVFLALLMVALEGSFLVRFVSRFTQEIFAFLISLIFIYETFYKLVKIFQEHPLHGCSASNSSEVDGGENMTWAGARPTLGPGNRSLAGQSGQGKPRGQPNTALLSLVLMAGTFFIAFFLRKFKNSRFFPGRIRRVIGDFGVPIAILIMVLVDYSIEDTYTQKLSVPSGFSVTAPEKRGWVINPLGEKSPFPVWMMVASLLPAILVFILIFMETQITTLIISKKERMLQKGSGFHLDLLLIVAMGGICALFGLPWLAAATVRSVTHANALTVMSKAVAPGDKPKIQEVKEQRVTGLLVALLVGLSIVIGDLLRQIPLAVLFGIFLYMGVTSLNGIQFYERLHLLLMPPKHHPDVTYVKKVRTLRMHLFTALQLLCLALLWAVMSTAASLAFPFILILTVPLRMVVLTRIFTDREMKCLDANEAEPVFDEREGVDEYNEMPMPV
Put plainly: co-IP; HEK293T cells transfected with the indicated plasmids; lysis buffer 20 mM Tris, 150 mM NaCl, 2 mM EDTA, 1% Triton X-100; 1 ug/mL antibody 16 h at 4°C, protein G agarose beads; western blot; cells with or without BAPTA-AM (10 uM, 1 h) or nocodazole (10 uM, 1 h).

Another assay addresses Spinophilin (UniProt Q96SB3). The assay can be described thus: co-IP; Supplementary Figures S2B,C; transfected cells, cell line not stated; input blots as loading control.

Regarding Spinophilin (from UniProt Q96SB3 1-817), in the assay with Anion exchanger 2, the binding result is on record as “binds”.

B1: NKCC1 (protein, UniProt P55011 1-1212)
chain: MEPRPTAPSSGAPGLAGVGETPSAAALAAARVELPGTAVPSVPEDAAPASRDGGGVRDEGPAAAGDGLGRPLGPTPSQSRFQVDLVSENAGRAAAAAAAAAAAAAAAGAGAGAKQTPADGEASGESEPAKGSEEAKGRFRVNFVDPAASSSAEDSLSDAAGVGVDGPNVSFQNGGDTVLSEGSSLHSGGGGGSGHHQHYYYDTHTNTYYLRTFGHNTMDAVPRIDHYRHTAAQLGEKLLRPSLAELHDELEKEPFEDGFANGEESTPTRDAVVTYTAESKGVVKFGWIKGVLVRCMLNIWGVMLFIRLSWIVGQAGIGLSVLVIMMATVVTTITGLSTSAIATNGFVRGGGAYYLISRSLGPEFGGAIGLIFAFANAVAVAMYVVGFAETVVELLKEHSILMIDEINDIRIIGAITVVILLGISVAGMEWEAKAQIVLLVILLLAIGDFVIGTFIPLESKKPKGFFGYKSEIFNENFGPDFREEETFFSVFAIFFPAATGILAGANISGDLADPQSAIPKGTLLAILITTLVYVGIAVSVGSCVVRDATGNVNDTIVTELTNCTSAACKLNFDFSSCESSPCSYGLMNNFQVMSMVSGFTPLISAGIFSATLSSALASLVSAPKIFQALCKDNIYPAFQMFAKGYGKNNEPLRGYILTFLIALGFILIAELNVIAPIISNFFLASYALINFSVFHASLAKSPGWRPAFKYYNMWISLLGAILCCIVMFVINWWAALLTYVIVLGLYIYVTYKKPDVNWGSSTQALTYLNALQHSIRLSGVEDHVKNFRPQCLVMTGAPNSRPALLHLVHDFTKNVGLMICGHVHMGPRRQAMKEMSIDQAKYQRWLIKNKMKAFYAPVHADDLREGAQYLMQAAGLGRMKPNTLVLGFKKDWLQADMRDVDMYINLFHDAFDIQYGVVVIRLKEGLDISHLQGQEELLSSQEKSPGTKDVVVSVEYSKKSDLDTSKPLSEKPITHKVEEEDGKTATQPLLKKESKGPIVPLNVADQKLLEASTQFQKKQGKNTIDVWWLFDDGGLTLLIPYLLTTKKKWKDCKIRVFIGGKINRIDHDRRAMATLLSKFRIDFSDIMVLGDINTKPKKENIIAFEEIIEPYRLHEDDKEQDIADKMKEDEPWRITDNELELYKTKTYRQIRLNELLKEHSSTANIIVMSLPVARKGAVSSALYMAWLEALSKDLPPILLVRGNHQSVLTFYS
As to B1, the binding result with Spinophilin is on record as “no binding”.

B2: NBCe1-B (protein, UniProt Q9Y6R1 1-1079)
chain: MEDEAVLDRGASFLKHVCDEEEVEGHHTIYIGVHVPKSYRRRRRHKRKTGHKEKKEKERISENYSDKSDIENADESSSSILKPLISPAAERIRFILGEEDDSPAPPQLFTELDELLAVDGQEMEWKETARWIKFEEKVEQGGERWSKPHVATLSLHSLFELRTCMEKGSIMLDREASSLPQLVEMIVDHQIETGLLKPELKDKVTYTLLRKHRHQTKKSNLRSLADIGKTVSSASRMFTNPDNGSPAMTHRNLTSSSLNDISDKPEKDQLKNKFMKKLPRDAEASNVLVGEVDFLDTPFIAFVRLQQAVMLGALTEVPVPTRFLFILLGPKGKAKSYHEIGRAIATLMSDEVFHDIAYKAKDRHDLIAGIDEFLDEVIVLPPGEWDPAIRIEPPKSLPSSDKRKNMYSGGENVQMNGDTPHDGGHGGGGHGDCEELQRTGRFCGGLIKDIKRKAPFFASDFYDALNIQALSAILFIYLATVTNAITFGGLLGDATDNMQGVLESFLGTAVSGAIFCLFAGQPLTILSSTGPVLVFERLLFNFSKDNNFDYLEFRLWIGLWSAFLCLILVATDASFLVQYFTRFTEEGFSSLISFIFIYDAFKKMIKLADYYPINSNFKVGYNTLFSCTCVPPDPANISISNDTTLAPEYLPTMSSTDMYHNTTFDWAFLSKKECSKYGGNLVGNNCNFVPDITLMSFILFLGTYTSSMALKKFKTSPYFPTTARKLISDFAIILSILIFCVIDALVGVDTPKLIVPSEFKPTSPNRGWFVPPFGENPWWVCLAAAIPALLVTILIFMDQQITAVIVNRKEHKLKKGAGYHLDLFWVAILMVICSLMALPWYVAATVISIAHIDSLKMETETSAPGEQPKFLGVREQRVTGTLVFILTGLSVFMAPILKFIPMPVLYGVFLYMGVASLNGVQFMDRLKLLLMPLKHQPDFIYLRHVPLRRVHLFTFLQVLCLALLWILKSTVAAIIFPVMILALVAVRKGMDYLFSQHDLSFLDDVIPEKDKKKKEDEKKKKKKKGSLDSDNDDSDCPYSEKVPSIKIPMDIMEQQPFLSDSKPSDRERSPTFLERHTSC
Regarding B2, the binding entry with Spinophilin is given as “no binding”.
